This is one part of the list.
Key:
Test in all cases: glycan array binding signal (z-score within array); higher = stronger binding
Settings in all cases: glycan notation: IUPAC condensed, linker removed
[1] = molecular target: Neu5Ac(a2-3)Gal(b1-4)GlcNAc(b1-2)Man(a1-3)[Neu5Ac(a2-6)Gal(b1-4)GlcNAc(b1-2)Man(a1-6)]Man(b1-4)GlcNAc(b1-4)GlcNAc
Summary of the method: (§1)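 The binding signal is a Z-score computed within each array and averaged over linkers. Arrays of the same protein sequence at different concentrations or buffers were also averaged together. Data originate from 3228 arrays in the Consortium for Functional Glycomics database, kept only where the protein sequence was available.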

[2] = molecular target: Neu5Ac(a2-3)Gal(b1-4)GlcNAc(b1-2)[Neu5Ac(a2-3)Gal(b1-4)GlcNAc(b1-4)]Man(a1-3)[GlcNAc(b1-4)][Neu5Ac(a2-3)Gal(b1-4)GlcNAc(b1-2)[Neu5Ac(a2-3)Gal(b1-4)GlcNAc(b1-6)]Man(a1-6)]Man(b1-4)GlcNAc(b1-4)GlcNAc
Summary of the method: as §1

[3] = molecular target: Neu5Ac(a2-3)Gal(b1-4)GlcNAc(b1-2)[Neu5Ac(a2-3)Gal(b1-4)GlcNAc(b1-4)]Man(a1-3)[GlcNAc(b1-4)][Neu5Ac(a2-3)Gal(b1-4)GlcNAc(b1-4)Man(a1-6)]Man(b1-4)GlcNAc(b1-4)GlcNAc
Summary of the method: as §1

[4] = molecular target: Neu5Ac(a2-3)Gal(b1-4)GlcNAc(b1-2)[Neu5Ac(a2-3)Gal(b1-4)GlcNAc(b1-6)]Man(a1-6)[Neu5Ac(a2-3)Gal(b1-4)GlcNAc(b1-2)Man(a1-3)][GlcNAc(b1-4)]Man(b1-4)GlcNAc(b1-4)GlcNAc
Summary of the method: as §1

[5] = molecular target: Neu5Ac(a2-3)Gal(b1-4)GlcNAc(b1-3)Gal
Summary of the method: as §1

[6] = molecular target: Neu5Ac(a2-3)Gal(b1-4)GlcNAc(b1-3)Gal(b1-3)GlcNAc
Summary of the method: as §1

[7] = molecular target: Neu5Ac(a2-3)Gal(b1-4)GlcNAc(b1-3)Gal(b1-4)GlcNAc
Summary of the method: as §1

[8] = molecular target: Neu5Ac(a2-3)Gal(b1-4)GlcNAc(b1-3)Gal(b1-4)GlcNAc(b1-2)Man(a1-3)[Neu5Ac(a2-3)Gal(b1-4)GlcNAc(b1-3)Gal(b1-4)GlcNAc(b1-2)Man(a1-6)]Man(b1-4)GlcNAc(b1-4)GlcNAc
Summary of the method: as §1

[9] = molecular target: Neu5Ac(a2-3)Gal(b1-4)GlcNAc(b1-3)Gal(b1-4)GlcNAc(b1-3)Gal(b1-4)GlcNAc
Summary of the method: as §1

[10] = molecular target: Neu5Ac(a2-3)Gal(b1-4)GlcNAc(b1-3)Gal(b1-4)GlcNAc(b1-3)Gal(b1-4)GlcNAc(b1-2)Man(a1-3)[Neu5Ac(a2-3)Gal(b1-4)GlcNAc(b1-3)Gal(b1-4)GlcNAc(b1-3)Gal(b1-4)GlcNAc(b1-2)Man(a1-6)]GalNAc
Summary of the method: as §1

[11] = molecular target: Neu5Ac(a2-3)Gal(b1-4)GlcNAc(b1-3)Gal(b1-4)GlcNAc(b1-3)GalNAc
Summary of the method: as §1

[12] = molecular target: Neu5Ac(a2-3)Gal(b1-4)GlcNAc(b1-3)Gal(b1-4)GlcNAc(b1-3)[Neu5Ac(a2-3)Gal(b1-4)GlcNAc(b1-3)Gal(b1-4)GlcNAc(b1-6)]GalNAc
Summary of the method: as §1

[13] = molecular target: Neu5Ac(a2-3)Gal(b1-4)GlcNAc(b1-3)Gal(b1-4)GlcNAc(b1-6)[Gal(b1-3)]GalNAc
Summary of the method: as §1

[14] = molecular target: Neu5Ac(a2-3)Gal(b1-4)GlcNAc(b1-3)Gal(b1-4)[Fuc(a1-3)]GlcNAc
Summary of the method: as §1

[15] = molecular target: Neu5Ac(a2-3)Gal(b1-4)GlcNAc(b1-3)GalNAc
Summary of the method: as §1

[16] = molecular target: Neu5Ac(a2-3)Gal(b1-4)GlcNAc(b1-3)[Neu5Ac(a2-3)Gal(b1-4)GlcNAc(b1-6)]GalNAc
Summary of the method: as §1

[17] = molecular target: Neu5Ac(a2-3)Gal(b1-4)GlcNAc(b1-6)GalNAc
Summary of the method: as §1

[18] = molecular target: Neu5Ac(a2-3)Gal(b1-4)GlcNAc(b1-6)[Gal(b1-3)]GalNAc
Summary of the method: as §1

[19] = molecular target: Neu5Ac(a2-3)Gal(b1-4)GlcNAc(b1-6)[Neu5Ac(a2-3)Gal(b1-3)]GalNAc
Summary of the method: as §1

[20] = molecular target: Neu5Ac(a2-3)Gal(b1-4)GlcNAc6S
Summary of the method: as §1

[21] = molecular target: Neu5Ac(a2-3)Gal(b1-4)[Fuc(a1-3)]GlcNAc
Summary of the method: as §1

[22] = molecular target: Neu5Ac(a2-3)Gal(b1-4)[Fuc(a1-3)]GlcNAc(b1-2)Man
Summary of the method: as §1

[23] = molecular target: Neu5Ac(a2-3)Gal(b1-4)[Fuc(a1-3)]GlcNAc(b1-3)Gal
Summary of the method: as §1

[24] = molecular target: Neu5Ac(a2-3)Gal(b1-4)[Fuc(a1-3)]GlcNAc(b1-3)Gal(b1-4)GlcNAc
Summary of the method: as §1

[25] = molecular target: Neu5Ac(a2-3)Gal(b1-4)[Fuc(a1-3)]GlcNAc(b1-3)Gal(b1-4)[Fuc(a1-3)]GlcNAc(b1-3)Gal(b1-4)[Fuc(a1-3)]GlcNAc
Summary of the method: as §1

[26] = molecular target: Neu5Ac(a2-3)Gal(b1-4)[Fuc(a1-3)]GlcNAc(b1-3)GalNAc
Summary of the method: as §1

[27] = molecular target: Neu5Ac(a2-3)Gal(b1-4)[Fuc(a1-3)]GlcNAc(b1-6)[Gal(b1-3)]GalNAc
Summary of the method: as §1

[28] = molecular target: Neu5Ac(a2-3)Gal(b1-4)[Fuc(a1-3)]GlcNAc(b1-6)[Neu5Ac(a2-3)Gal(b1-3)]GalNAc
Summary of the method: as §1

[29] = molecular target: Neu5Ac(a2-3)Gal(b1-4)[Fuc(a1-3)]GlcNAc6S
Summary of the method: as §1

[30] = molecular target: Neu5Ac(a2-3)Gal6S(b1-4)GlcNAc
Summary of the method: as §1

[31] = molecular target: Neu5Ac(a2-3)Gal6S(b1-4)[Fuc(a1-3)]GlcNAc
Summary of the method: as §1

Neu5Ac(a2-3)GalNAc = molecular target: Neu5Ac(a2-3)GalNAc
Summary of the method: as §1

[32] = molecular target: Neu5Ac(a2-3)GalNAc(b1-4)GlcNAc
Summary of the method: as §1

[33] = molecular target: Neu5Ac(a2-3)[GalNAc(b1-4)]Gal(b1-4)Glc
Summary of the method: as §1

[34] = molecular target: Neu5Ac(a2-3)[GalNAc(b1-4)]Gal(b1-4)GlcNAc
Summary of the method: as §1

[35] = molecular target: Neu5Ac(a2-3)[GalNAc(b1-4)]Gal(b1-4)GlcNAc(b1-3)GalNAc
Summary of the method: as §1

[36] = molecular target: Neu5Ac(a2-3)[Neu5Ac(a2-6)]GalNAc
Summary of the method: as §1

Neu5Ac(a2-6)Gal = molecular target: Neu5Ac(a2-6)Gal
Summary of the method: as §1

[37] = molecular target: Neu5Ac(a2-6)Gal(b1-3)GlcNAc(b1-3)[Gal(b1-4)GlcNAc(b1-6)]Gal(b1-4)Glc
Summary of the method: as §1

Neu5Ac(a2-6)Gal(b1-4)Glc = molecular target: Neu5Ac(a2-6)Gal(b1-4)Glc
Summary of the method: as §1

[38] = molecular target: Neu5Ac(a2-6)Gal(b1-4)GlcNAc
Summary of the method: as §1

[39] = molecular target: Neu5Ac(a2-6)Gal(b1-4)GlcNAc(b1-2)Man
Summary of the method: as §1

[40] = molecular target: Neu5Ac(a2-6)Gal(b1-4)GlcNAc(b1-2)Man(a1-3)Man(b1-4)GlcNAc(b1-4)GlcNAc
Summary of the method: as §1

[41] = molecular target: Neu5Ac(a2-6)Gal(b1-4)GlcNAc(b1-2)Man(a1-3)[Gal(b1-4)GlcNAc(b1-2)Man(a1-6)]Man(b1-4)GlcNAc(b1-4)GlcNAc
Summary of the method: as §1

[42] = molecular target: Neu5Ac(a2-6)Gal(b1-4)GlcNAc(b1-2)Man(a1-3)[GlcNAc(b1-2)Man(a1-6)]Man(b1-4)GlcNAc(b1-4)GlcNAc
Summary of the method: as §1

B1: EfCBM33A (Enterococcus faecalis), Q838S1 (protein)
chain: MKKSLLTIVLAFSFVLGGAALAPTVSEAHGYVASPGSRAFFGSSAGGNLNTNVGRAQWEPQSIEAPKNTFITGKLASAGVSGFEPLDEQTATRWHKTNITTGPLDITWNLTAQHRTASWDYYITKNGWNPNQPLDIKNFDKIASIDGKQEVPNKVVKQTINIPTDRKGYHVIYAVWGIGDTVNAFYQAIDVNIQ
glycan array binding signal (z-score) [1]: -0.155
glycan array binding signal (z-score) [2]: 0.719
glycan array binding signal (z-score) [3]: 0.336
glycan array binding signal (z-score) [4]: -0.714
glycan array binding signal (z-score) [5]: -1.09
glycan array binding signal (z-score) [6]: 0.077
glycan array binding signal (z-score) [7]: -0.177
glycan array binding signal (z-score) [8]: 1.14
glycan array binding signal (z-score) [9]: -0.666
glycan array binding signal (z-score) [10]: 0.095
glycan array binding signal (z-score) [11]: 1.47
glycan array binding signal (z-score) [12]: 7.32
glycan array binding signal (z-score) [13]: -0.958
glycan array binding signal (z-score) [14]: 1.81
glycan array binding signal (z-score) [15]: -0.167
glycan array binding signal (z-score) [16]: 3.14
glycan array binding signal (z-score) [17]: -0.077
glycan array binding signal (z-score) [18]: -0.259
glycan array binding signal (z-score) [19]: -1.34
glycan array binding signal (z-score) [20]: 0.223
glycan array binding signal (z-score) [21]: -0.648
glycan array binding signal (z-score) [22]: -0.094
glycan array binding signal (z-score) [23]: 0.027
glycan array binding signal (z-score) [24]: -0.063
glycan array binding signal (z-score) [25]: -0.474
glycan array binding signal (z-score) [26]: 2.79
glycan array binding signal (z-score) [27]: -0.245
glycan array binding signal (z-score) [28]: -0.871
glycan array binding signal (z-score) [29]: 1.17
glycan array binding signal (z-score) [30]: -0.289
glycan array binding signal (z-score) [31]: -0.531
glycan array binding signal (z-score) (Neu5Ac(a2-3)GalNAc): 0.041
glycan array binding signal (z-score) [32]: 0.359
glycan array binding signal (z-score) [33]: -0.932
glycan array binding signal (z-score) [34]: -1.06
glycan array binding signal (z-score) [35]: 0.272
glycan array binding signal (z-score) [36]: 0.448
glycan array binding signal (z-score) (Neu5Ac(a2-6)Gal): 0.387
glycan array binding signal (z-score) [37]: -0.925
glycan array binding signal (z-score) (Neu5Ac(a2-6)Gal(b1-4)Glc): -0.606
glycan array binding signal (z-score) [38]: -0.501
glycan array binding signal (z-score) [39]: -1.19
glycan array binding signal (z-score) [40]: 2.04
glycan array binding signal (z-score) [41]: 0.519
glycan array binding signal (z-score) [42]: -0.922

— the supplement of paper PMC8728848
